# Data as given in PubChem BioAssay AID720505 (Drosophila RNAi Screening Center, 2013)
# Assay: 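Fly regulators or components of the CRAC channel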 (primary screen)
# Cell system: Drosophila S2R+ cells
# Knock-down reagent: long dsRNA against Drosophila genes
# Treatment: thapsigargin (2 µM) in calcium-free buffer to empty internal stores, then 2 mM calcium added back
# Measurement: 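Fluo-4 signal in 384-well plates read on a FLIPR after thapsigargin (2 µM, calcium-free) store depletion and 2 mM calcium add-back; unnormalised mean endpoint per well; screen run twice, selected wells retested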
# Direction: calcium signal and retest calcium signal: higher = more calcium entry after store depletion
# Call rule: 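About 1500 genes called as lowering calcium entry, by varying amounts, judged against per-plate control wells with STIM1 as positive and Rho1 as negative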
# Calls: active = called as lowering calcium entry; inactive = not called
# The screen tested about 20,000 reagents; this is an unselected part of those with a known target gene and a result. Over the whole deposit, about 2,100 (10%) were called active. 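Raw plate signals without normalisation; calls rest on control-based scores that were not deposited; replicate 2 separates called from uncalled poorly.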 Reagents against one gene are numbered here. A plus sign joins genes that one reagent is predicted to hit. No sequences are given here. Not given: the amount of reagent, the time to read-out.
gene,dsRNA no.,"calcium signal, replicate 1","calcium signal, replicate 2","retest calcium signal, replicate 1","retest calcium signal, replicate 2",call
CG5877,1,145,105,,,inactive
CG32454,1,93.3,116,,,inactive
prod (proliferation disrupter),1,101,138,,,inactive
CG9205,1,142,136,,,inactive
CG9389,1,114,74.6,,,inactive
CG9411,1,123,106,,,inactive
CG31668,1,150,198,,,inactive
CG5399,1,119,126,,,inactive
CG6791,1,106,122,,,inactive
CG13766,1,116,109,,,inactive
CG13946,1,130,177,,,inactive
Qsox3 (Quiescin sulfhydryl oxidase 3),1,149,158,,,inactive
CG18682 (retired record),1,169,151,,,inactive
CG18682 (retired record),2,196,146,8525,125,inactive
CG32643,1,,,,,active
maf-S,1,76.7,82.4,,,inactive
glob2 (globin 2),1,122,101,,,inactive
CG6325,1,113,123,,,inactive
CG7974,1,214,87.1,,,inactive
CG1024,1,130,130,,,inactive
Pp1-87B (Protein phosphatase 1 at 87B),1,90.2,183,,,inactive
Pp1-87B (Protein phosphatase 1 at 87B),2,150,162,,,inactive
CG31099,1,267,123,,,inactive
SkpD (SKP1-related D),1,93.7,211,,,inactive
Pal2 (Peptidyl-alpha-hydroxyglycine-alpha-amidating lyase 2),1,141,162,,,inactive
CG10177,1,292,126,,,inactive
CG32333,1,115,123,,,inactive
CG32333,2,66.2,98.4,,,inactive
CG32024,1,57.7,243,,,active
MnM (myomesin and myosin binding protein),1,69.5,111,,,inactive
Arc2 (Activity-regulated cytoskeleton associated protein 2),1,64.8,134,,,active
UK114,1,118,111,,,inactive
CG11384,1,102,127,,,inactive
CG31848,1,277,188,,,inactive
mRpS7 (mitochondrial ribosomal protein S7),1,80.4,154,,,inactive
Gal (beta galactosidase),1,153,88.4,,,inactive
CG8086,1,124,244,,,inactive
CG8086,2,144,150,,,inactive
CanA-14F (Calcineurin A at 14F),1,71.9,117,,,active
CanA-14F (Calcineurin A at 14F),2,171,152,,,inactive
CG4839,1,104,158,,,inactive
CG4839,2,109,91.5,,,inactive
E2f1 (E2F transcription factor 1),1,153,130,,,inactive
thoc6,1,135,110,,,inactive
CG9447,1,87.3,83,,,inactive
ATbp ((A+T)-stretch binding protein),1,262,101,,,inactive
Zn72D (Zinc-finger protein at 72D),1,129,74.7,,,inactive
Mtr3,1,74.6,130,,,inactive
CCT7 (Chaperonin containing TCP1 subunit 7),1,121,169,,,inactive
nclb (no child left behind),1,119,138,,,inactive
Cul1 (Cullin 1),1,170,156,,,inactive
CG4960,1,168,119,,,inactive
sff (sugar-free frosting),1,158,90,,,inactive
CG14200,1,73.5,114,,,active
CG14200,2,101,85.9,,,inactive
GCS2beta (Glucosidase 2 beta subunit),1,105,113,,,inactive
mus302 (mutagen-sensitive 302),1,129,173,,,inactive
stnB + stnA,1,148,180,,,inactive
stnB + stnA,2,187,105,,,inactive
stnB + stnA,3,127,104,,,inactive
CG1671,1,201,187,,,inactive
CG8677 + CG31626,1,75.5,4443,7412,122,inactive
Nf-YB (Nuclear factor Y-box B),1,227,106,,,inactive
BomS4 (Bomanin Short 4),1,80.3,157,,,inactive
TwdlN (TweedleN),1,76.7,77.6,,,inactive
Taf12L (TBP-associated factor 30kD subunit alpha-2),1,208,81.5,,,inactive
CG15480,1,85,148,,,inactive
Rift (Riboflavin transporter),1,73.1,148,,,inactive
lncRNA:CR32690 (long non-coding RNA:CR32690),1,106,204,,,inactive
CG9609,1,110,105,,,inactive
CG32638,1,,,,,active
CG6441,1,189,74.4,,,inactive
Plp (Pericentrin-like protein),1,100,216,,,inactive
Plp (Pericentrin-like protein),2,106,110,,,active
Plp (Pericentrin-like protein),3,99.7,117,,,inactive
sd (scalloped),1,92.5,146,,,inactive
sd (scalloped),2,86.5,141,,,inactive
CG34163,1,112,96.1,,,active
AOX2 (Aldehyde oxidase 2),1,122,145,,,inactive
vig2,1,210,289,,,inactive
Acox3 (Acyl-CoA oxidase 3),1,93.7,106,,,inactive
Sarm (Sterile alpha and Armadillo motif),1,100,83.7,,,inactive
Sarm (Sterile alpha and Armadillo motif),2,98.2,74,,,inactive
Sarm (Sterile alpha and Armadillo motif),3,97.1,84.9,,,inactive
Sarm (Sterile alpha and Armadillo motif),4,63.5,86,,,active
